Reference: PubChem BioAssay AID1259308 (NCATS, 2017)

Screen: 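Candidate targets for better recombinant protein yield in mammalian cells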 (primary screen)
System: human HEK293 embryonic kidney cells stably expressing firefly luciferase (HEK-CMV-Luc2-Hygro)
Reagent: single siRNA against human genes, 0.8 pmol siRNA per well
Timing: 72 h
Detection: 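Luciferase light (ONE-Glo) measured on one replicate plate set and viability (CellTiter-Glo) on the other, scaled to a negative control siRNA, with robust z-scores and luciferase per cell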
Direction: total luciferase, z-score and total luciferase, % of control: higher = more reporter protein produced; luciferase per cell, z-score: higher = more reporter output per viable cell; viable cells, % of control: higher = more viable cells
Hit rule: 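An siRNA counts as active if its total luciferase robust z-score exceeds 3; genes with two or more such siRNAs out of three were retested with fresh siRNAs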
Meaning of the calls: active = raised luciferase; inactive = no rise
This is an unselected part of about 59,000 reagents tested. About 1,510 of them (2.6%) count as active. 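Calls use total luciferase alone and ignore viability, so some active siRNAs may act by altering cell number.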

gene | PubChem SID | total luciferase, z-score | total luciferase, % of control | luciferase per cell, z-score | viable cells, % of control | activity call
RGCC (GeneID 28984) | SID160738929 | -0.127 | 79.4 | -1.06 | 117 | inactive
RGCC (GeneID 28984) | SID160738930 | -0.167 | 78.6 | -0.902 | 111 | inactive
RGCC (GeneID 28984) | SID160738931 | 0.29 | 87.6 | -0.498 | 112 | inactive
EVX2 (GeneID 344191) | SID160731114 | -0.214 | 77.6 | -0.469 | 98.2 | inactive
EVX2 (GeneID 344191) | SID160764761 | -2.65 | 29.2 | -1.44 | 47.7 | inactive
EVX2 (GeneID 344191) | SID160764762 | 0.298 | 87.8 | 0.36 | 89.3 | inactive
KRT40 (GeneID 125115) | SID160756309 | -1.39 | 54.2 | -2.05 | 104 | inactive
KRT40 (GeneID 125115) | SID160756310 | 1.86 | 119 | 1.83 | 82.1 | inactive
KRT40 (GeneID 125115) | SID160756311 | 1.3 | 108 | 1.63 | 78.4 | inactive
WWC1 (GeneID 23286) | SID160735922 | 0.846 | 98.7 | -0.0336 | 111 | inactive
WWC1 (GeneID 23286) | SID160735923 | -1.11 | 59.7 | -1.14 | 90.2 | inactive
WWC1 (GeneID 23286) | SID160735924 | 0.0261 | 82.4 | 0.166 | 88.1 | inactive
UBQLN2 (GeneID 29978) | SID160739424 | 0.963 | 101 | 0.0795 | 111 | inactive
UBQLN2 (GeneID 29978) | SID160739425 | 0.694 | 95.7 | 0.0741 | 105 | inactive
UBQLN2 (GeneID 29978) | SID160739426 | -0.758 | 66.8 | -1.12 | 100 | inactive
TIMM8A (GeneID 1678) | SID160730696 | 0.101 | 83.9 | -0.744 | 114 | inactive
TIMM8A (GeneID 1678) | SID160753952 | 1.38 | 109 | 1.7 | 78.1 | inactive
TIMM8A (GeneID 1678) | SID160753963 | 0.529 | 92.4 | 0.915 | 81.2 | inactive
PPIAP66 (GeneID 643997) | SID160725693 | -0.528 | 71.4 | -0.601 | 93.4 | inactive
PPIAP66 (GeneID 643997) | SID160733854 | -0.145 | 79 | 0.745 | 72.6 | inactive
PPIAP66 (GeneID 643997) | SID160769066 | -1.05 | 61 | -1.12 | 91.6 | inactive

4 successive records already listed, for reference:
gene | PubChem SID | total luciferase, z-score | total luciferase, % of control | luciferase per cell, z-score | viable cells, % of control | activity call
EVX2 (GeneID 344191) | SID160764762 | 0.298 | 87.8 | 0.36 | 89.3 | inactive
KRT40 (GeneID 125115) | SID160756309 | -1.39 | 54.2 | -2.05 | 104 | inactive
KRT40 (GeneID 125115) | SID160756310 | 1.86 | 119 | 1.83 | 82.1 | inactive
KRT40 (GeneID 125115) | SID160756311 | 1.3 | 108 | 1.63 | 78.4 | inactive

Next records:
gene | PubChem SID | total luciferase, z-score | total luciferase, % of control | luciferase per cell, z-score | viable cells, % of control | activity call
DDX43 (GeneID 55510) | SID160743736 | -1.36 | 54.8 | -1.02 | 80.1 | inactive
DDX43 (GeneID 55510) | SID160743738 | -0.832 | 65.3 | -0.745 | 88.8 | inactive
DDX43 (GeneID 55510) | SID160743739 | -0.923 | 63.5 | -0.00434 | 71.1 | inactive
TIPARP (GeneID 25976) | SID160737370 | -0.477 | 72.4 | -0.86 | 101 | inactive
TIPARP (GeneID 25976) | SID160737371 | 2.16 | 125 | 1.02 | 107 | inactive
TIPARP (GeneID 25976) | SID160737372 | -0.949 | 63 | -0.907 | 89.4 | inactive
AMFR (GeneID 267) | SID160717121 | -0.344 | 75 | -0.79 | 103 | inactive
AMFR (GeneID 267) | SID160717129 | -0.169 | 78.5 | -0.0596 | 89.1 | inactive
AMFR (GeneID 267) | SID160717139 | -0.156 | 78.8 | -0.553 | 102 | inactive
CYB561 (GeneID 1534) | SID160751021 | 1.65 | 115 | 2.48 | 66.7 | inactive
CYB561 (GeneID 1534) | SID160751031 | -1.13 | 59.4 | -1.2 | 91.1 | inactive
CYB561 (GeneID 1534) | SID160751041 | -0.669 | 68.6 | 0.193 | 72.8 | inactive
C1orf116 (GeneID 79098) | SID160748649 | 0.144 | 84.7 | -0.943 | 121 | inactive
C1orf116 (GeneID 79098) | SID160748650 | 0.509 | 92 | -0.356 | 113 | inactive
C1orf116 (GeneID 79098) | SID160748651 | 1.27 | 107 | -0.106 | 123 | inactive
GABPB1 (GeneID 2553) | SID160768315 | 0.421 | 90.3 | 0.46 | 89.4 | inactive
GABPB1 (GeneID 2553) | SID160768317 | -0.0933 | 80 | 0.116 | 86.7 | inactive
GABPB1 (GeneID 2553) | SID160768328 | 0.358 | 89 | 2.17 | 56.1 | inactive
TTC22 (GeneID 55001) | SID160742708 | 0.284 | 87.5 | -0.358 | 107 | inactive
TTC22 (GeneID 55001) | SID160742709 | -0.296 | 76 | -0.813 | 105 | inactive
TTC22 (GeneID 55001) | SID160742710 | -0.145 | 79 | 0.0676 | 86.7 | inactive
NSUN6 (GeneID 221078) | SID160761593 | -0.718 | 67.6 | -1.41 | 109 | inactive
NSUN6 (GeneID 221078) | SID160761594 | -0.716 | 67.6 | -0.634 | 89.3 | inactive
NSUN6 (GeneID 221078) | SID160761595 | -0.177 | 78.4 | -0.344 | 95.9 | inactive
SCML1 (GeneID 6322) | SID160716379 | 0.724 | 96.3 | 0.121 | 104 | inactive
SCML1 (GeneID 6322) | SID160716380 | -1.4 | 54.1 | -2.43 | 115 | inactive
SCML1 (GeneID 6322) | SID160716381 | 0.816 | 98.1 | 0.701 | 91.1 | inactive
TTPA (GeneID 7274) | SID160718436 | -0.76 | 66.8 | -1.13 | 100 | inactive
TTPA (GeneID 7274) | SID160718437 | 0.116 | 84.2 | -0.0156 | 94.5 | inactive
TTPA (GeneID 7274) | SID160718438 | -1.08 | 60.5 | -1.33 | 95.9 | inactive
C4orf33 (GeneID 132321) | SID160757160 | -0.199 | 77.9 | -0.0759 | 88.8 | inactive
C4orf33 (GeneID 132321) | SID160757161 | -0.242 | 77.1 | -0.467 | 97.4 | inactive
C4orf33 (GeneID 132321) | SID160757162 | -0.368 | 74.6 | -0.241 | 88.8 | inactive
L1CAM-AS1 (GeneID 100996465) | SID160725665 | 1.27 | 107 | 0.372 | 109 | inactive
L1CAM-AS1 (GeneID 100996465) | SID160768978 | -0.517 | 71.6 | -0.168 | 83.6 | inactive
L1CAM-AS1 (GeneID 100996465) | SID160768980 | 0.547 | 92.8 | 1.49 | 70.1 | inactive
